# Tests used:
# [1] = tested on: fused TvG6PD::6PGL protein; assay: Extrinsic fluorescence (ANS) assay; parameters: species or system Trichomonas vaginalis; conditions: for maximum extrinsic (ANS) fluorescence intensity: 0.1 mg/mL protein, compound at IC50, 2 h at 37 °C, enzyme without inhibitor about 509 a.u.; for extrinsic (ANS) fluorescence intensity fold change: versus TvG6PD::6PGL protein without any compound
# [2] = tested on: fused TvG6PD::6PGL protein; assay: Intrinsic fluorescence assay; parameters: species or system Trichomonas vaginalis; conditions: for maximum intrinsic fluorescence intensity: protein without inhibitors 984 a.u.; for fold loss of intrinsic fluorescence intensity: versus protein in the absence of inhibitors (984 a.u.)
# [3] = 0.1 mg/mL protein, compound at IC50, 2 h at 37 °C
SMILES,maximum extrinsic (ANS) fluorescence intensity [1],extrinsic (ANS) fluorescence intensity fold change [1],"maximum intrinsic fluorescence intensity [2, 3]",fold loss of intrinsic fluorescence intensity [2],"redshift of intrinsic fluorescence emission [2, 3]"
O=C(COc1ccc(/C=C2\SC(=O)NC2=O)cc1)NC1CCN(Cc2ccccc2)CC1 [MCC-7],60 a.u.,−8.4 fold,18 a.u.,55 fold,–
COc1cc(CCC(=O)O)ccc1OCc1ccc(-c2ccccc2C#N)cc1 [JMM-3],162 a.u.,−3.1 fold,–,–,8 nm
COc1ccc(NC(=O)Nc2ncc([N+](=O)[O-])s2)cc1 [CNZ-17],90 a.u.,−5.6 fold,148 a.u.,6 fold,–
O=C(Nc1ccc(Cl)cc1)Nc1ncc([N+](=O)[O-])s1 [CNZ-3],–,1.3 fold,382 a.u.,2.5 fold,–

# — publication PMC8880039, “Kinetic and Molecular Docking Studies to Determine the Effect of Inhibitors on the Activity and Structure of Fused G6PD::6PGL Protein from Trichomonas vaginalis” (Molecules, 2022)
